In patent US7884103B2 (priority 2003, dated 2011):
Some entries share one result that the patent states for a list of compounds.

Columns and labels:
Assay type in all cases: cell-based
[1] = tested on: Erysiphe graminis f. sp. hordel (Barley powdery mildew); assay: Erysiphe graminis f. sp. hordel barley leaf segment test, preventive fungicidal activity; conditions: tested dose range 200 to 22 ppm, barley leaf segments, assessed 4 dpi
[2] = tested on: Phytophthora infestans (late blight of potato/tomato); conditions: tested dose range 200 to 22 ppm; tomato leaf disks; preventive; assessed 4 dpi
[3] = tested on: Plasmopara viticola (downy mildew of grapevine); assay: Plasmopara viticola grape vine leaf disk test, preventive fungicidal activity; conditions: tested dose range 200 to 22 ppm, grape vine leaf disks, assessed 7 dpi

Structure (SMILES) | inhibition of fungal growth [1] | inhibition of fungal growth [2] | inhibition of fungal growth [3]
CCOc1ccc(OCC(C)(NS(=O)(=O)Cc2ccccc2)C(=O)N2CCOCC2)cc1 (stereo not shown) [compound 092, 3-(4-Ethoxy-phenoxy)-2-methyl-2-phenylmethanesulfonylamino-1-morpholin-4-yl-propan-1-one] | at least 80% |  | 
CCOc1ccc(OCC(C)(NS(=O)(=O)Cc2ccccc2)C(=O)N(C)OC)cc1 (stereo not shown) [compound 083, 3-(4-Ethoxy-phenoxy)-N-methoxy-2,N-dimethyl-2-phenylmethanesulfonylamino-propionamide] |  | at least 80% | at least 80%
CCOc1ccc(OCC(C)(NS(=O)(=O)Cc2ccccc2)C(=O)OC)cc1 (stereo not shown) [compound 082, 3-(4-Ethoxy-phenoxy)-2-methyl-2-phenylmethanesulfonylamino-propionic Acid Methyl Ester] |  | at least 80% | at least 80%
CC(COc1ccc(-n2cncn2)cc1)(NS(=O)(=O)Cc1ccccc1)C(=O)O (stereo not shown) [compound 100, 2-Methyl-2-phenylmethanesulfonylamino-3-(4-[1,2,4]triazol-1-yl-phenoxy)-propionic Acid] |  | at least 80% | at least 80%
